# Measurements published in PubChem BioAssay AID2685 (National Center for Advancing Translational Sciences (NCATS), 2010).
# The other results are listed elsewhere or left out. Further columns of the screen follow, without active or inactive calls. The list favours compounds with an active or inconclusive main result. The note in brackets gives the kind of curve behind each potency; many fits are weak.
# Experiment: qHTS Assay for Lipid Storage Modulators in Drosophila S3 Cells;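 on cell number change: cells counted by Cell Tracker Red CMTPX staining in the red channel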
# Settings: BODIPY lipid droplet fluorescence, 18-24 h; for cell number change: measured here: cell count max response, cells fed with added oleic acid
# How it was run: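 Drosophila S3 cells loaded with oleic acid (400 uM, as added) and compounds at several concentrations; lipid droplets imaged by 488-nm laser-scanning cytometry, 500–530 nm intensity and object ratio to cell channel. Percent activity normalized to 20 uM Triacsin C.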
# [1] = measured here: lipid fluorescence (Fed channel) AC50, cells fed with added oleic acid
# [2] = measured here: cell number channel AC50, cells fed with added oleic acid
SMILES,AC50 [1],cell number change [%],AC50 [2]
O=C(O)CCSc1nc2ccc(Br)cc2[nH]1,"16.4 µM [rising, single point]",,
N#CCCN1CCN(C(=S)c2ccc(-c3cc(Cl)ccc3Cl)o2)CC1,,5.1,
O=C1/C(=C/c2cccc(F)c2)Oc2cc(O)ccc21,"29.1 µM [falling, single point]",1.8,
OCCCc1nc2ccccc2n1CCOc1ccccc1,"0.0651 µM [falling, full curve, poor fit]",-11.8,
Cc1cc(C)nc(Nc2ncc(O)n2-c2ccc(Br)cc2)n1,"6.51 µM [falling, single point]",-0.621,
COc1ccccc1CNC(=O)N1CCN(c2ccccc2Cl)CC1,,-11.3,
CCCc1cc(=O)[nH]c(SCc2nc3ccccc3o2)n1,"10.3 µM [falling, single point]",5,
Cc1cccc(-c2nc(CS(=O)CC(=O)NCc3cccs3)c(C)o2)c1 (stereo unspecified),,-5.67,
C=CCCC(=O)Nc1nc(C)c(-c2csc(Nc3ccc(Cl)cc3Cl)n2)s1,"0.651 µM [falling, full curve, poor fit]",-25.9,
COc1cccc(NC(=O)CN2C(=O)NC(C)(c3ccc(C)cc3)C2=O)c1 (stereo unspecified),,-0.901,
CCOC(=O)c1ccc(S(=O)(=O)NNC(=O)COc2ccc(C)cc2)cc1,"7.31 µM [rising, partial curve]",1.36,
CC(C)(C)NC(=O)Cn1nc(C(F)(F)F)c2c1CCCC2,"0.517 µM [falling, single point]",9.46,
COc1ccc(S(=O)(=O)NC(C)c2ccccc2)cc1C(=O)N1CCCCC1 (stereo unspecified),,8.11,
CNC(=S)NNC(=O)Cc1ccc(O)cc1,"25.9 µM [falling, partial curve]",-18.4,"6.51 µM [rising, single point]"
CN(c1ccccc1)S(=O)(=O)c1ccc(Cl)c(C(=O)NCC(c2ccco2)N2CCCC2)c1 (stereo unspecified),,0.435,
O=C1c2ccccc2C(=O)C2OC12 (stereo unspecified),"13 µM [falling, partial curve]",-48.7,"13 µM [falling, partial curve]"
NNC(=O)c1ccc2nc(-c3ccc(Br)cc3)cn2c1,,-16.8,"0.0116 µM [rising, full curve, poor fit]"
Cc1cccc(Nc2cc(=O)[nH]c(=O)[nH]2)c1,"9.2 µM [rising, partial curve, poor fit]",18.2,
COc1ccc(CNC(=O)CN2C(=O)C(c3ccccc3)Oc3cccnc32)cc1 (stereo unspecified),"6.51 µM [rising, single point]",-1.73,
CC(C)c1ccc(OCC(=O)NCc2n[nH]c(=O)c3ccccc23)cc1,"5.17 µM [falling, partial curve, poor fit]",-56.1,"23.1 µM [falling, partial curve]"

SMILES,AC50 [1],cell number change [%],AC50 [2]
CCOc1ccc(CCNC(=O)C2CCCN(c3ncnc4c3nc3n4CCCCC3)C2)cc1 (stereo unspecified),"6.51 µM [rising, single point]",9.16,"6.51 µM [rising, single point]"
O=C(NCC(=O)N(Cc1ccco1)C(C(=O)NC1CCCCC1)c1cccnc1)c1ccco1 (stereo unspecified),"0.731 µM [rising, single point]",25.4,
CCOC(=O)c1c(NC(=O)C(=O)N/N=C/c2ccccc2OC)sc2c1CCCCC2,"6.51 µM [rising, single point]",3.33,
Nc1nc(NCc2ccco2)nc(N2CCCCC2)c1[N+](=O)[O-],"29.1 µM [falling, partial curve, poor fit]",-16.8,"0.00411 µM [rising, full curve, poor fit]"
Cc1ccc([N+](=O)[O-])cc1NC(=O)Nc1cccc(F)c1,"23.1 µM [falling, partial curve]",-56.4,"29.1 µM [falling, single point]"
COc1ccc(NC(=O)COc2ncnc3ccccc23)cc1S(=O)(=O)N1CCOCC1,"3.66 µM [rising, full curve]",81.7,
O=C(CSc1nc2ccccc2[nH]1)Nc1ccc(F)c(F)c1,"2.59 µM [rising, partial curve]",-36.9,"23.1 µM [falling, single point]"
c1nc2sc3c(c2c2nnnn12)CCCC3,,3.71,
CC(C)NS(=O)(=O)c1ccc(OCC(=O)NCc2cccnc2)cc1,,6.76,"0.731 µM [falling, single point]"
N#C/C(=C/c1ccc(N2CCOCC2)c([N+](=O)[O-])c1)C(N)=O,"0.0058 µM [falling, full curve, poor fit]",-0.402,"0.82 µM [falling, full curve, poor fit]"
Cc1nc(NC(=O)CN(C)S(=O)(=O)c2ccc(Br)cc2)sc1C,"1.84 µM [rising, partial curve]",-8.17,
Cc1c(Cl)cccc1NC(=O)CSc1nncn1-c1ccccn1,,14.5,
CCCCNC(=S)N/N=C/C1=CCC2CC1C2(C)C (stereo unspecified),,-100,"29.1 µM [falling, partial curve, poor fit]"
O=C(Cc1cc(=O)[nH][nH]1)N/N=C/c1c(F)cccc1Cl,"6.51 µM [falling, single point]",6.12,
CCCCCC(=O)N(O)C1CC(=O)N(c2ccccc2)C1=O (stereo unspecified),"18.4 µM [falling, partial curve]",-90.9,"25.9 µM [falling, partial curve]"
CC1CCCN(S(=O)(=O)c2ccc(C(=O)Nc3nnc(C4=COCCO4)o3)cc2)C1 (stereo unspecified),"29.1 µM [falling, single point]",,
Cc1ccc(S(=O)(=O)N2CCN(C(=O)c3ccccc3)C2)cc1[N+](=O)[O-],"0.146 µM [rising, full curve, poor fit]",15.4,
O=C(CN1CCCCC1)Nc1nc(-c2ccc(Cl)cc2)cs1,"0.116 µM [falling, full curve, poor fit]",-5.83,
NC(=O)CC(NC(=O)c1ccccc1)c1ccc(N2CCC(Br)CC2)c([N+](=O)[O-])c1 (stereo unspecified),"32.6 µM [falling, single point]",-8.92,
CCC(C)[C@H](NC(=O)N1CCn2c1nc1ccccc12)C(=O)NCCc1ccccc1 (stereo partly specified),,-6.6,

# 2 of the compounds above, tab-delimited:
SMILES	AC50 [1]	cell number change [%]	AC50 [2]
NC(=O)CC(NC(=O)c1ccccc1)c1ccc(N2CCC(Br)CC2)c([N+](=O)[O-])c1 (stereo unspecified)	32.6 µM [falling, single point]	-8.92	
CCC(C)[C@H](NC(=O)N1CCn2c1nc1ccccc12)C(=O)NCCc1ccccc1 (stereo partly specified)		-6.6	

# Remaining list, next part

SMILES,AC50 [1],cell number change [%],AC50 [2]
COC(=O)Nc1c(C)n(C)n(-c2ccccc2)c1=O,,,"0.206 µM [rising, full curve, poor fit]"
O=[N+]([O-])c1cccc2ccc(N3CCOCC3)nc12,"6.51 µM [falling, single point]",2.92,
O=C(Nc1ccc([N+](=O)[O-])cc1)Nc1ccon1,"6.51 µM [falling, single point]",-12.4,
CC(C)(C)[C@H](NC(=O)c1ccc(N)c(Cl)c1)C(=O)N1CCC[C@H]1C(=O)N[C@H](C#N)Cc1nn[nH]n1,"0.731 µM [falling, single point]",,"0.0517 µM [falling, full curve, poor fit]"
Cc1ccc(-c2csc(=S)n2CC(=O)OCC(=O)NCc2ccc(F)cc2)cc1,"0.58 µM [rising, single point]",31.1,"0.517 µM [rising, full curve]"
CCCN(CCC)Cc1c(C(=O)OCC)nnn1-c1nonc1N,"3.66 µM [rising, single point]",-19.3,
Cn1c(Cc2nc3ccccc3n2C)nc2ccccc21,,16.4,
O=Nc1c(-c2cccc([N+](=O)[O-])c2)nc2ncccn12,"20.6 µM [falling, single point]",-58.3,"18.4 µM [falling, single point]"
COc1ccccc1/C=C/C=N\N1CCN(Cc2ccccc2Cl)CC1,"0.651 µM [rising, full curve]",2.63,
COc1ccc(OC)c(N/C(C)=C/C(=O)c2ccc(C)o2)c1,"5.8 µM [rising, full curve]",,"6.51 µM [rising, single point]"
O=C(CC1C(=O)NC2CCCCC2N1C(=O)c1ccc(F)cc1)Nc1ccccc1 (stereo unspecified),"23.1 µM [falling, partial curve, poor fit]",,
O=C(CCCn1c(=S)[nH]c2cc3c(cc2c1=O)OCO3)N1CCN(c2ncccn2)CC1,,-35.2,"29.1 µM [falling, single point]"
O=C(c1ccc(S(=O)(=O)NCC2CCCO2)cc1)N1CCN(c2ccccc2)CC1 (stereo unspecified),"1.03 µM [falling, full curve, poor fit]",-16,"2.06 µM [falling, single point]"
O=C(O)C1CCN(c2ccc(S(=O)(=O)N3CCOCC3)cc2[N+](=O)[O-])CC1,"0.58 µM [falling, partial curve, poor fit]",-12.9,
CCN(CC)CCNC(=O)c1ccc(NS(=O)(=O)c2ccc3c(c2)OCCO3)cc1,,72.7,"18.4 µM [rising, single point]"
CN(C)C(CNC(=O)C1CC(=O)N(Cc2ccccc2)C1)c1ccccc1 (stereo unspecified),"32.6 µM [falling, single point]",6.42,
Cc1ccc(OC(=O)c2ccccc2P(=O)(O)O)cc1,"11.6 µM [falling, partial curve]",-6.45,"0.731 µM [falling, single point]"
O=C1/C(=C\c2ccco2)CCC/C1=C\c1ccco1,"16.4 µM [falling, partial curve]",,
CCC(=O)c1ccc(OCC(=O)Nc2ccccc2N2CCOCC2)cc1,"6.51 µM [rising, full curve, poor fit]",-14.8,
